# Results as given in the supplement of paper PMC3334620.
# Over roughly 33,000 sequences, “E-score (-0.5 to 0.5)” has its median near -0.015; the highest 2% begin near 0.3. The list shows a part of the results.
# Target: T1, Abf1 (UniProt P14164)
# T1 sequence: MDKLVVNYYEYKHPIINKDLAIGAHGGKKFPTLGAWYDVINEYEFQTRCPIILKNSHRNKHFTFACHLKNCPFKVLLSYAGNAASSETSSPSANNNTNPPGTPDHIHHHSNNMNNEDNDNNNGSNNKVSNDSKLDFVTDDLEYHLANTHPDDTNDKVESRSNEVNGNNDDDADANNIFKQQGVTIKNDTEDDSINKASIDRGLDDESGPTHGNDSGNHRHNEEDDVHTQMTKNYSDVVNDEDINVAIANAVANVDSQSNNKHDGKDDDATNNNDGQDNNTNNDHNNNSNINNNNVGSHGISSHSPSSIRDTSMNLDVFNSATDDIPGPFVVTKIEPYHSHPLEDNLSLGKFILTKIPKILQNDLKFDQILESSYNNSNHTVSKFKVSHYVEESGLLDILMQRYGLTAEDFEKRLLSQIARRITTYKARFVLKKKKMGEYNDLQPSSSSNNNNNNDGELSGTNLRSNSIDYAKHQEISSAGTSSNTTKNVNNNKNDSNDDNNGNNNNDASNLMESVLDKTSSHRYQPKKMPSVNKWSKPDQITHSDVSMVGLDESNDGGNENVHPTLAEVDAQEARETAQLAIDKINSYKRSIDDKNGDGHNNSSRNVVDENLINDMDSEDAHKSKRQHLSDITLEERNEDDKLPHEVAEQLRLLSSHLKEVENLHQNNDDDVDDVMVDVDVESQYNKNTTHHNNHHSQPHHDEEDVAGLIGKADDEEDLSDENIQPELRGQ
# Assay: PBM E-score (8-mer binding enrichment) (E-score (-0.5 to 0.5)); higher = stronger / more preferred TF binding
# Conditions: protein concentration: 200 nM; construct: GST-full length
# Method in brief: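 Masliner-normalised scans of fluorescent anti-GST signal were the basis for scoring. That signal came from GST-tagged yeast transcription factors applied at about 100-200 nM to double-stranded universal all-10-mer Agilent arrays on fresh or once-stripped slides. Each ungapped eight-base word, pooled with its reverse complement, received an E-score from the Universal PBM Analysis Suite.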
row,Sequence,PBM E-score
1,ACTTGCTA,-0.147
2,GTAAGTGA,0.208
3,CGATATGA,0.161
4,CCCATCGA,0.0289
5,ACAGGTTC,-0.257
6,CGATACCG,-0.0403
7,AAGTAGGA,0.0551
8,ACCCCCGT,-0.0911
9,CCTTACGC,-0.0286
10,AATTGCTA,-0.0559
11,CTCCTCCC,-0.201
12,AATTACTA,0.0958
13,CATATTAC,0.145
14,AATGCTGG,-0.141
15,ACGGGGCA,-0.00285
16,AGACTCGC,-0.238
17,GCTGAAAC,0.082
18,AGTTGCTG,-0.133
19,CATACTCC,-0.0369
20,AAGATACG,0.0984
21,CGCATAAG,-0.0581
22,CCCGCGGA,-0.0315
23,ATTCTGGG,-0.105
24,AAACCAAG,-0.0305
25,ATGAGTCG,0.0446

row,Sequence,PBM E-score
1,GACAGCTA,-0.00943
2,TCTCGCCA,0.0626
3,GACCACGC,0.0314
4,CCACACGC,-0.104
5,CTGGTAGA,-0.235
6,CGTTGTTC,0.114
7,CAAGTAAA,-0.0688
8,ACCTGGTC,-0.0792
9,CGTGCTAC,-0.00184
10,ACAATTTC,0.161
11,CGGGGTAA,0.0283
12,CATTCGGA,0.166
13,CCATCCAA,-0.112
14,ATCTGCCG,0.121
15,ATATGGTG,0.0579
16,CTCTGTAA,-0.0872
17,GCTTCCGA,0.0724
18,GTGAATTA,0.0465
19,ACCCCCAG,-0.138
20,GACCAGTA,-0.0693
21,CCAACTTC,-0.0929
22,ACAGAGGT,0.0944
23,AGCTTCCA,-0.0893
24,CTTAGAGC,-0.139
25,CGTAACAC,0.128

row,Sequence,PBM E-score
1,ACAGGCCT,-0.168
2,CGTTGAAC,0.223
3,GGGTGGTA,-0.128
4,AGCGATAA,0.28
5,CAACGGTC,0.074
6,AGAGGCGA,-0.0198
7,ACACGTAC,0.0287
8,GCCCCATA,-0.289
9,ACCTTCTA,0.0532
10,GAGCAATC,-0.088
11,GGAGGCCA,-0.411
12,AGAGGCAA,-0.181
13,CCAACAGA,-0.161
14,CCTACGCG,-0.0816
15,AGTGCTCG,-0.0709
16,GCTAGGAA,-0.159
17,CATTCTAG,0.0846
18,ATCTCGAG,-0.00814
19,GGGCTAAA,-0.129
20,AGCGGGGA,-0.308
21,CGGGTTTA,-0.106
22,ACACCGCT,-0.0667
23,CACCTACC,-0.112
24,CAGAAAAA,-0.0509
25,CTCGTGAC,0.344

row,Sequence,PBM E-score
1,ACGACCAA,0.182
2,AAATTTCT,-0.115
3,CCTATGCA,0.018
4,CACAGAGG,-0.113
5,GGACCTAC,-0.14
6,ACACTTCG,0.0805
7,CCTGGCCG,0.107
8,AGGTAATG,0.0091
9,GCTTGGAA,-0.0616
10,AATTTAAA,0.12
11,GCCTGCGA,-0.174
12,CGCTTTAC,-0.0157
13,GCCAAGGA,-0.204
14,AACGGGGA,-0.102
15,CGCGGACA,0.114
16,CGTGTTTA,0.239
17,GCGGGAGA,-0.124
18,CTGTTAGC,-0.131
19,TCATCCAA,0.215
20,AATGAACT,-0.177
21,GCAATTGA,-0.0735
22,CACACGGC,0.163
23,CAGTATAG,-0.018
24,AAAGATGA,0.212
25,ACTAAATC,0.037

# Looked up one by one from above, 6 records:
row,Sequence,PBM E-score
7,CCTGGCCG,0.107
5,GGACCTAC,-0.14
19,TCATCCAA,0.215
13,GCCAAGGA,-0.204
23,CAGTATAG,-0.018
6,ACACTTCG,0.0805

# (next part)

row,Sequence,PBM E-score
1,CGCGCGCC,0.17
2,CAAAACGC,0.00331
3,AGATTGAG,0.208
4,GGAAGTGA,0.329
5,CAATCACC,0.0554
6,AAGATGAC,0.313
7,CCAAGGCG,-0.187
8,ACAGAGGC,-0.262
9,ATAAGTAC,0.0856
10,GACACCGC,-0.0338
11,CCGCAGAC,-0.162
12,CGTTTTTC,-0.0523
13,ATTAAGGG,-0.229
14,AAGGATAT,0.0906
15,GAGTCAAC,-0.237
16,AAGAAGGA,-0.175
17,TGAGTGCA,-0.156
18,ACACCGCA,-0.122
19,CCCGCAAG,-0.441
20,AATTAGGA,-0.0241
21,AACACCCG,0.0332
22,AATTTTTA,0.0762
23,CTTGAAAC,0.0891
24,GCGTGTCA,0.0814
25,GCCCGGGC,-0.245

row,Sequence,PBM E-score
1,ACTCCAGA,-0.169
2,CACTCTTA,0.0437
3,GACACCTC,-0.0457
4,ATGCGCAC,0.0461
5,CTTCGACA,-0.0739
6,AGAACGAT,0.235
7,ACTAGTAG,0.00272
8,ATCGTACA,0.34
9,AGGTCTCA,-0.0189
10,AGGAAGAG,-0.223
11,CATCCTAG,-0.0044
12,ACACTCTA,-0.0336
13,CGGAATAC,0.131
14,AAATGTCA,0.223
15,GAGAGTGA,0.324
16,ACGGAGAG,-0.0672
17,TCCTCACA,-0.0619
18,TACTAAAA,0.0949
19,ACCCGTCT,0.0119
20,ATTTTTTA,0.193
21,AATGTATG,0.123
22,AGCCCGCG,-0.281
23,CCGAACGA,0.251
24,GGGAAACA,0.0707
25,CATCCATG,0.00463

# Reformatted: results already given.
row	Sequence	PBM E-score
18	TACTAAAA	0.0949
19	ACCCGTCT	0.0119
20	ATTTTTTA	0.193
21	AATGTATG	0.123
22	AGCCCGCG	-0.281
23	CCGAACGA	0.251
24	GGGAAACA	0.0707

# (listing goes on)

row,Sequence,PBM E-score
1,GACCGGAA,-0.191
2,TGTCGGAA,0.0147
3,GATCGCCA,0.165
4,AGGGCGAA,-0.299
5,AAAGCGTG,0.071
6,CAAACGAC,0.198
7,CCTGAGGC,-0.205
8,CCAGCCCA,-0.323
9,AGCGGTGC,-0.19
10,GATATTAC,0.253
11,CGCGTTTC,-0.0291
12,AGGTGTAG,-0.148
13,CATGCAGA,-0.0122
14,AATCGTAT,0.297
15,AGCGGCAC,-0.138
16,CTAGGCTA,-0.227
17,AAATATTC,0.0874
18,GGGTAACC,-0.116
19,CGAGTAAA,0.0829
20,AAATAGAA,-0.0319
21,GTCTGGGA,-0.0546
22,CCCTTGGC,-0.307
